# Test results reported in paper PMC12482183.
# Protein sequences, listed by entry. Tags and fused reporters are not part of them.
# UniProt P0A988: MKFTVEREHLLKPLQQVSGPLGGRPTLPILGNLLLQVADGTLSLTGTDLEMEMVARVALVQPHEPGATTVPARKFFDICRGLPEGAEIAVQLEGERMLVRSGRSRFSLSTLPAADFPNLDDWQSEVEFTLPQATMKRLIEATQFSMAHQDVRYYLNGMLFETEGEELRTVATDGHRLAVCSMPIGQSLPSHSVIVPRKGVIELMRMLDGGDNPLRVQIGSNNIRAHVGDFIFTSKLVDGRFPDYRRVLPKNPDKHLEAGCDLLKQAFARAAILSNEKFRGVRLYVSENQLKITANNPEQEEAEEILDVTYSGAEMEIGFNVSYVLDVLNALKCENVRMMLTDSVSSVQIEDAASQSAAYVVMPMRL
# UniProt P0A6M8: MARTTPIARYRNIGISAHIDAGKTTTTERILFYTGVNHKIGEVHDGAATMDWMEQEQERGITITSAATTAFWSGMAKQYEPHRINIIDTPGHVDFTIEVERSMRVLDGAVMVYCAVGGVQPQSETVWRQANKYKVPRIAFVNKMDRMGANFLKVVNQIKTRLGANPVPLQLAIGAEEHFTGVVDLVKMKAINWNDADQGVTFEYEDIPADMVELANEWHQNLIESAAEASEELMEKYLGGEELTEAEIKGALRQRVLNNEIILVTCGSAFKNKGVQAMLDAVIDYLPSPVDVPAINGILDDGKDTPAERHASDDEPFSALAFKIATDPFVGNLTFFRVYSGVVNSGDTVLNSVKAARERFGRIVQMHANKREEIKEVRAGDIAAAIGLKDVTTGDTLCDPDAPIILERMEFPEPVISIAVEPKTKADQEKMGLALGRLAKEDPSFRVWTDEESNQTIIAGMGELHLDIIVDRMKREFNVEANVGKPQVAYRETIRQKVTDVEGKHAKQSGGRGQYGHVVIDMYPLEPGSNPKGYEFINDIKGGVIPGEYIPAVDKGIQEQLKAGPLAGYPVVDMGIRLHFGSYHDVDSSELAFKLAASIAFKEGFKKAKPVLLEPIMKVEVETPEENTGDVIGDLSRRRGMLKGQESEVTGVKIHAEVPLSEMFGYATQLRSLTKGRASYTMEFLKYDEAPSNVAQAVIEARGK
# UniProt P0A6P1: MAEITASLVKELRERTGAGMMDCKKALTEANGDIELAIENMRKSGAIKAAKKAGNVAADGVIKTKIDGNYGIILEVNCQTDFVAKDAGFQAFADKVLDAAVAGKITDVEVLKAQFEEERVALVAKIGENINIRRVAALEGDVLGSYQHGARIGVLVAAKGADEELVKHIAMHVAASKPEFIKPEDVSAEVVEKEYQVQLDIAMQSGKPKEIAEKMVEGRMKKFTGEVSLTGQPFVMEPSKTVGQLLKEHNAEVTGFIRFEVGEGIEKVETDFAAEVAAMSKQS
# Results are given in words; binding and its absence hold for the method and conditions named. In cells and extracts the contact can be indirect. Here binding means that the protein was enriched with, or labelled near, the bait; the list need not be complete.
# Biological target: His-tagged β-clamp (E. coli) (UniProt P0A988)
# Test: affinity purification with mass spectrometry; His-tagged β-clamp pulled down on TALON Metal Affinity Resin from E. coli BL21 extract; His-tag only control; trypsination, LC-MS/MS, LFQ
row,binding,Molecule
1,binds,elongation factor FusA (EF-G) (from UniProt P0A6M8 1-704)
2,binds,elongation factor Tsf (EF-Ts) (from UniProt P0A6P1 1-283)
3,binds,"elongation factor Efp (EF-P) (protein, UniProt P0A6N4 1-188) MATYYSNDFRAGLKIMLDGEPYAVEASEFVKPGKGQAFARVKLRRLLTGTRVEKTFKSTDSAEGADVVDMNLTYLYNDGEFWHFMNNETFEQLSADAKAIGDNAKWLLDQAECIVTLWNGQPISVTPPNFVELEIVDTDPGLKGDTAGTGGKPATLSTGAVVKVPLFVQIGEVIKVDTRSGEYVSRVK"
4,binds,"translation factor EttA (protein, UniProt P0A9W3 1-555) MAQFVYTMHRVGKVVPPKRHILKNISLSFFPGAKIGVLGLNGAGKSTLLRIMAGIDKDIEGEARPQPDIKIGYLPQEPQLNPEHTVRESIEEAVSEVVNALKRLDEVYALYADPDADFDKLAAEQGRLEEIIQAHDGHNLNVQLERAADALRLPDWDAKIANLSGGERRRVALCRLLLEKPDMLLLDEPTNHLDAESVAWLERFLHDFEGTVVAITHDRYFLDNVAGWILELDRGEGIPWEGNYSSWLEQKDQRLAQEASQEAARRKSIEKELEWVRQGTKGRQSKGKARLARFEELNSTEYQKRNETNELFIPPGPRLGDKVLEVSNLRKSYGDRLLIDDLSFSIPKGAIVGIIGPNGAGKSTLFRMISGQEQPDSGTITLGETVKLASVDQFRDSMDNSKTVWEEVSGGLDIMKIGNTEMPSRAYVGRFNFKGVDQGKRVGELSGGERGRLHLAKLLQVGGNMLLLDEPTNDLDIETLRALENALLEFPGCAMVISHDRWFLDRIATHILDYQDEGKVEFFEGNFTEYEEYKKRTLGADALEPKRIKYKRIAK"
